Assay results from the supplement of paper PMC6078165.
The reference is the same well before dosing, and untreated signal decays as well.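 Labels refer to human fibroblasts, largely primary: uterine (C12385, HUF), lung (H6013), bone (Hs27A), adrenal (HADF), skin (WS1), plus mammary HMF and breast cancer-associated Hs343T. Cancer lines are basal-like or mesenchymal-like triple-negative breast cancer. The paper counts as hits responses shifting over 3x the replicate standard deviation. The tissue of the other fibroblasts is not given here.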

Test system: BT20
Assay: relative JC-1 red fluorescence (viability) vs pre-drug, coculture with fibroblast (fraction); higher = more viable cancer cells
Description: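 JC-1 labelled TNBC cells cocultured 1:1 (1,500 cells each) with CellTrace Violet stained primary or stromal fibroblasts in 384-well plates in FluoroBrite medium, treated with one of 42 anticancer drugs at 0.1, 1, 10 or 100 uM. JC-1 red fluorescence (mitochondrial integrity in cancer cells only) was read by plate reader every 8 h for 72 h. Values are normalised to each well's pre-drug value. The stock of one drug was tenfold lower, so its dose labels may be too high.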

C=C1C[C@@H]2[C@H](CC[C@]3(C)C(=O)CC[C@@H]23)[C@@]2(C)C=CC(=O)C=C12 [Exemestane]
relative JC-1 red fluorescence
Conditions	8 h	16 h	24 h	32 h	40 h	48 h	56 h	64 h	72 h
0.1 µM, coculture fibroblast: C12385	0.962	0.89	0.809	0.742	0.6709	0.6394	0.6068	0.579	0.564
0.1 µM, coculture fibroblast: H6013	0.9823	0.887	0.888	0.867	0.845	0.836	0.847	0.824	0.816
0.1 µM, coculture fibroblast: H6019	0.851	0.76	0.72	0.65	0.599	0.581	0.542	0.511	0.491
0.1 µM, coculture fibroblast: H6076	0.963	0.865	0.79	0.756	0.726	0.7	0.684	0.674	0.663
0.1 µM, coculture fibroblast: H6231	0.965	0.88	0.7589	0.7024	0.6663	0.624	0.595	0.571	0.547
0.1 µM, coculture fibroblast: HADF	0.732	0.932	0.878	0.854	0.82	0.763	0.742	0.731	0.697
0.1 µM, coculture fibroblast: HCFa	0.953	0.859	0.82	0.775	0.719	0.685	0.637	0.607	0.561
0.1 µM, coculture fibroblast: HCPF	0.847	0.9157	0.8212	0.763	0.716	0.66	0.609	0.586	0.549
0.1 µM, coculture fibroblast: HHSteC	0.904	0.896	0.896	0.842	0.802	0.775	0.744	0.721	0.679
0.1 µM, coculture fibroblast: HMF	0.787	0.892	0.782	0.721	0.665	0.623	0.583	0.552	0.52
0.1 µM, coculture fibroblast: HPFa	0.9358	0.846	0.819	0.731	0.689	0.632	0.581	0.545	0.492
0.1 µM, coculture fibroblast: HUF	0.90662	0.793	0.733	0.639	0.574	0.522	0.49	0.461	0.435
0.1 µM, coculture fibroblast: Hs5	0.804	0.899	0.821	0.775	0.735	0.705	0.669	0.634	0.601
0.1 µM, coculture fibroblast: Hs27A	0.829	0.819	0.896	0.876	0.822	0.8055	0.78	0.756	0.699
0.1 µM, coculture fibroblast: Hs343T	0.912	0.886	0.771	0.712	0.657	0.606	0.546	0.528	0.494
0.1 µM, coculture fibroblast: WS1	0.891	0.7992	0.759	0.6914	0.632	0.603	0.5794	0.5466	0.531
1 µM, coculture fibroblast: C12385	0.904	0.83	0.782	0.719	0.652	0.62	0.58	0.562	0.544
1 µM, coculture fibroblast: H6013	0.9453	0.875	0.819	0.794	0.744	0.731	0.718	0.692	0.668
1 µM, coculture fibroblast: H6019	0.878	0.7885	0.772	0.715	0.667	0.643	0.605	0.578	0.551
1 µM, coculture fibroblast: H6076	0.781	0.909	0.814	0.77	0.734	0.715	0.695	0.687	0.659
1 µM, coculture fibroblast: H6231	0.888	0.93	0.811	0.74	0.683	0.627	0.586	0.563	0.533
1 µM, coculture fibroblast: HADF	0.852	0.862	0.817	0.774	0.737	0.703	0.686	0.673	0.645
1 µM, coculture fibroblast: HCFa	0.803	0.877	0.759	0.881	0.836	0.8	0.768	0.75	0.721
1 µM, coculture fibroblast: HCPF	0.814	0.86983	0.805	0.749	0.69453	0.648	0.608	0.583	0.547
1 µM, coculture fibroblast: HHSteC	0.909	0.884	0.886	0.825	0.789	0.77	0.755	0.731	0.693
1 µM, coculture fibroblast: HMF	0.837	0.8689	0.787	0.733	0.682	0.638	0.59	0.566	0.535
1 µM, coculture fibroblast: HPFa	0.911	0.844	0.831	0.739	0.699	0.647	0.614	0.576	0.511
1 µM, coculture fibroblast: HUF	0.922	0.833	0.83	0.786	0.755	0.727	0.707	0.681	0.652
1 µM, coculture fibroblast: Hs5	0.861	0.8961	0.8306	0.7775	0.7406	0.7027	0.66995	0.6439	0.613
1 µM, coculture fibroblast: Hs27A	0.86	0.846	0.966	0.972	0.9609	0.959	0.947	0.925	0.865
1 µM, coculture fibroblast: Hs343T	0.936	0.864	0.7872	0.7138	0.6688	0.616	0.577	0.557	0.529
1 µM, coculture fibroblast: WS1	0.8584	0.749	0.712	0.652	0.612	0.599	0.567	0.548	0.531
10 µM, coculture fibroblast: C12385	0.906	0.8466	0.796	0.743	0.709	0.682	0.656	0.625	0.601
10 µM, coculture fibroblast: H6013	0.89	0.837	0.849	0.858	0.887	0.791	0.801	0.752	0.7768
10 µM, coculture fibroblast: H6019	0.8674	0.811	0.813	0.773	0.73	0.728	0.699	0.681	0.669
10 µM, coculture fibroblast: H6076	0.9991	0.908	0.836	0.80987	0.7781	0.7565	0.744	0.741	0.722
10 µM, coculture fibroblast: H6231	0.866	0.9318	0.8369	0.7707	0.7126	0.6516	0.59489	0.552	0.502
10 µM, coculture fibroblast: HADF	0.941	0.948	0.879	0.8635	0.8383	0.7978	0.7895	0.7748	0.735
10 µM, coculture fibroblast: HCFa	0.978	0.892	0.834	0.807	0.767	0.729	0.689	0.669	0.615
10 µM, coculture fibroblast: HCPF	0.927	0.957	0.869	0.8	0.742	0.696	0.65577	0.634	0.593
10 µM, coculture fibroblast: HHSteC	0.958	0.879	0.865	0.806	0.759	0.73	0.692	0.671	0.63
10 µM, coculture fibroblast: HMF	0.902	0.9103	0.8097	0.7354	0.681	0.635	0.591	0.565	0.522
10 µM, coculture fibroblast: HPFa	0.891	0.947	0.827	0.9575	0.938	0.887	0.853	0.81	0.744
10 µM, coculture fibroblast: HUF	0.9506	0.888	0.861	0.783	0.759	0.726	0.712	0.698	0.682
10 µM, coculture fibroblast: Hs5	0.78	0.842	0.901	0.85	0.792	0.754	0.707	0.674	0.638
10 µM, coculture fibroblast: Hs27A	0.848	0.806	0.845	0.804	0.804	0.745	0.873	0.957	0.889
10 µM, coculture fibroblast: Hs343T	0.913	0.881	0.7799	0.72017	0.65617	0.6094	0.539	0.503	0.439
10 µM, coculture fibroblast: WS1	0.894	0.8634	0.814	0.764	0.721	0.692	0.655	0.622	0.599
100 µM, coculture fibroblast: C12385	0.906	0.869	0.86	0.825	0.783	0.765	0.745	0.721	0.69
100 µM, coculture fibroblast: H6013	0.833	0.865	0.828	0.929	0.818	0.823	0.823	0.8281	0.818
100 µM, coculture fibroblast: H6019	0.8712	0.8321	0.827	0.793	0.764	0.754	0.735	0.7298	0.7227
100 µM, coculture fibroblast: H6076	0.8192	0.959	0.888	0.858	0.823	0.794	0.769	0.758	0.735
100 µM, coculture fibroblast: H6231	0.895	0.9145	0.83125	0.777	0.723	0.676	0.635	0.611	0.594
100 µM, coculture fibroblast: HADF	0.943	0.945	0.878	0.87	0.849	0.8217	0.797	0.7728	0.716
100 µM, coculture fibroblast: HCFa	0.9391	0.917	0.912	0.886	0.871	0.728	0.71	0.688	0.734
100 µM, coculture fibroblast: HCPF	0.904	0.839	0.859	0.765	0.753	0.753	0.734	0.688	0.636
100 µM, coculture fibroblast: HHSteC	0.931	0.918	0.912	0.885	0.851	0.833	0.809	0.775	0.738
100 µM, coculture fibroblast: HMF	0.908	0.942	0.858	0.7986	0.758	0.692	0.65	0.617	0.564
100 µM, coculture fibroblast: HPFa	0.919	0.913	0.888	0.773	0.874	0.824	0.773	0.732	0.671
100 µM, coculture fibroblast: HUF	0.9274	0.877	0.8611	0.787	0.748	0.711	0.69	0.662	0.638
100 µM, coculture fibroblast: Hs5	0.866	0.908	0.844	0.797	0.757	0.726	0.692	0.664	0.64
100 µM, coculture fibroblast: Hs27A	0.7308	0.843	0.9462	0.9797	0.95	0.924	0.8921	0.87	0.822
100 µM, coculture fibroblast: Hs343T	0.789	0.939	0.8606	0.793	0.7496	0.691	0.628	0.59	0.542
100 µM, coculture fibroblast: WS1	0.837	0.785	0.752	0.699	0.647	0.619	0.584	0.551	0.523
